Results published in patent US10363230B2, “6-shogaol derivatives and activities thereof” (North Carolina Agricultural and Technical State University, priority 2017, dated 2019).

Assay: Chemical reactivity with L-cysteine in vitro
Conditions: for Michael addition reaction with L-cysteine: slightly basic condition, in vitro

CCCCCCCC(=O)CCc1ccc(O)c(O)c1 [Compound 25]
Reaction with L-cysteine under oxidative environments (IBX): efficiently produced cysteine conjugate 37 | Michael addition reaction with L-cysteine: no Michael addition took place | Reaction with L-cysteine by tyrosinase (tyrosinase from mushroom in PBS): generated cysteine conjugate 37

CCCCCCCC(=O)/C=C/c1ccc(O)c(O)c1 [Compound 27]
Michael addition reaction with L-cysteine: occurred immediately

CCCCC/C=C/C(=O)/C=C/c1ccc(O)c(OC)c1 [Compound 18]
Michael addition reaction with L-cysteine: occurred immediately
